The target in assay [1] is flag-tagged LOXL2 (lysyl oxidase-like 2) (human) (UniProt Q9Y4K0). The experiment in a line: affinity purification with mass spectrometry; anti-Flag antibody on Dynabeads Protein G, overnight at 4 °C, from nuclear-enriched extracts (400 mM NaCl extraction) of HEK293T cells transfected with pcDNA3-Flag-LOXL2; two independent immunoprecipitates; hits of the empty flag vector subtracted; LC-MS/MS.

Sequences of proteins named here, by UniProt entry; tags and fusion partners are left off. Residues count along the entry.
UniProt Q9Y4K0, residues 26-774: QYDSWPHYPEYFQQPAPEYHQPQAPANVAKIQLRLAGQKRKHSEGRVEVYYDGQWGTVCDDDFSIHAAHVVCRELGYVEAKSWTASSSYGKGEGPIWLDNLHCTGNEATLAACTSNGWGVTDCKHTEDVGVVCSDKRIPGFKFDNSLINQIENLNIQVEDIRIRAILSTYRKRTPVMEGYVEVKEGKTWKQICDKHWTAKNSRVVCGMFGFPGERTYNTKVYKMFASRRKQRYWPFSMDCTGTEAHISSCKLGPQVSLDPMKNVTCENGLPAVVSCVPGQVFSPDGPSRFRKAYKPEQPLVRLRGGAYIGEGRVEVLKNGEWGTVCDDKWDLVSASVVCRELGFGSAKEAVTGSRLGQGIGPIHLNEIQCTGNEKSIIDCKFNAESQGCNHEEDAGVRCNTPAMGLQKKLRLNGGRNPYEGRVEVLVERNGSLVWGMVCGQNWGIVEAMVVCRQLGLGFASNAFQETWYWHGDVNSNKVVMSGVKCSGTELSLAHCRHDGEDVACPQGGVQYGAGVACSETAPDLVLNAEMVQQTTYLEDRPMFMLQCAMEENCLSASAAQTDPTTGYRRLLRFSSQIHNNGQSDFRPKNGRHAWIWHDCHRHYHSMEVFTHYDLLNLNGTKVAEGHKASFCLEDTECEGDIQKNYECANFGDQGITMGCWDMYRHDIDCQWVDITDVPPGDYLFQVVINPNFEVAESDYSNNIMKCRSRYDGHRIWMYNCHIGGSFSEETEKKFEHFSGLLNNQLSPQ
UniProt O00571: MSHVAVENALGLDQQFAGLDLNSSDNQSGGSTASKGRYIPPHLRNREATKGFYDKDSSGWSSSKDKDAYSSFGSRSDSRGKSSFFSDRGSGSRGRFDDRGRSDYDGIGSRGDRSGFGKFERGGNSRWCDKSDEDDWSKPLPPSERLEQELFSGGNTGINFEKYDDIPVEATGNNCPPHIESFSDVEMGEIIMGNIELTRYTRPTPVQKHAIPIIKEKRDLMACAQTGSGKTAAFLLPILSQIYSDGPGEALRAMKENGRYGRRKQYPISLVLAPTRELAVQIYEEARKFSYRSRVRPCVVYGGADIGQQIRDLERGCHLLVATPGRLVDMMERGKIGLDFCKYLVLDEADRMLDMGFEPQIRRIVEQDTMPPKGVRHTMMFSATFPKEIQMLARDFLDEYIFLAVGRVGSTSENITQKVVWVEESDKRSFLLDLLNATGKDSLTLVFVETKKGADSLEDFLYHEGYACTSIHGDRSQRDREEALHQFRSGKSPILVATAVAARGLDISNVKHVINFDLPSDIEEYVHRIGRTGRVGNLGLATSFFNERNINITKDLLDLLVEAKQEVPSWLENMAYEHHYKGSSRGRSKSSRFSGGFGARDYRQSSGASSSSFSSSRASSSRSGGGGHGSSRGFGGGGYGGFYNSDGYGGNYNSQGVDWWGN
UniProt Q15717: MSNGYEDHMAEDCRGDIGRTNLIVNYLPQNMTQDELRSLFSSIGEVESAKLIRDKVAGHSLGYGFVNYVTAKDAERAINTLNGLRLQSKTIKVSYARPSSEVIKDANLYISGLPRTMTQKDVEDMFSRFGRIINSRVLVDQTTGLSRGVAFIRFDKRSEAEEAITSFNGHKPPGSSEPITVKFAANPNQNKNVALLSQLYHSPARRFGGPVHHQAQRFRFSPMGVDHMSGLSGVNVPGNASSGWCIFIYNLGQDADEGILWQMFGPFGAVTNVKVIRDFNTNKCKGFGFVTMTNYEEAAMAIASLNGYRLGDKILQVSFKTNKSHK
UniProt P11021, residues 19-654: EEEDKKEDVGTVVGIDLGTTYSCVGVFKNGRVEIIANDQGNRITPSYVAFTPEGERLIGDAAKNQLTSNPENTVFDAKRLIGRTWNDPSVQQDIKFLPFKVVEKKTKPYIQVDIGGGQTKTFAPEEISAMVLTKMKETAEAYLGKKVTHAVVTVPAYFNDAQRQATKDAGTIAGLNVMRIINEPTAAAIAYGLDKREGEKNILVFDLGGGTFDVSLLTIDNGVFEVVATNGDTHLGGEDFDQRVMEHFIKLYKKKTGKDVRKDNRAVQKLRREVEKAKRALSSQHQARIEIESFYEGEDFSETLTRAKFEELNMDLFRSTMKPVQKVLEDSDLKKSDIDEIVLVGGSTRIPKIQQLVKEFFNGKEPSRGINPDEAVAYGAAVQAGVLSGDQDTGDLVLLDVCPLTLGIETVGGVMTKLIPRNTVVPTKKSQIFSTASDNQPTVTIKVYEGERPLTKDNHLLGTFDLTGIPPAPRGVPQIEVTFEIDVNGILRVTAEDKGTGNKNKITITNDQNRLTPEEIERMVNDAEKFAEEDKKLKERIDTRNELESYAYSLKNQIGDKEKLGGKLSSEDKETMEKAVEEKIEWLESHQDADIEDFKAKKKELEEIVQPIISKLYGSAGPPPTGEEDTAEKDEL
UniProt Q86U44: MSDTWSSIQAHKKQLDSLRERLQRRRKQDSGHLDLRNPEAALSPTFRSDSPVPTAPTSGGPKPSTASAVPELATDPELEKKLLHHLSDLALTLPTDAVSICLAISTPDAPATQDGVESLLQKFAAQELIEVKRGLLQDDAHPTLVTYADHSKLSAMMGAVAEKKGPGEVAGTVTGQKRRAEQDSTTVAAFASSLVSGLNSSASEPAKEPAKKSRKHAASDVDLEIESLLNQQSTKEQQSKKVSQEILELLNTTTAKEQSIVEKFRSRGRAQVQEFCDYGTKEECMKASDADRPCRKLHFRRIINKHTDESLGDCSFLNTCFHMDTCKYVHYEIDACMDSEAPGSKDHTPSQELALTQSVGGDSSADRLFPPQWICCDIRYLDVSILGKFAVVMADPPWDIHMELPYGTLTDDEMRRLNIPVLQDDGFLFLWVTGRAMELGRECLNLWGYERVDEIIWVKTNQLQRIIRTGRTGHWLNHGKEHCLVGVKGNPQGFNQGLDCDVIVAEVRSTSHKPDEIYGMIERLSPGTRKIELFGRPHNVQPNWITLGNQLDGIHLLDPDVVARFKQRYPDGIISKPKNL
UniProt Q07955: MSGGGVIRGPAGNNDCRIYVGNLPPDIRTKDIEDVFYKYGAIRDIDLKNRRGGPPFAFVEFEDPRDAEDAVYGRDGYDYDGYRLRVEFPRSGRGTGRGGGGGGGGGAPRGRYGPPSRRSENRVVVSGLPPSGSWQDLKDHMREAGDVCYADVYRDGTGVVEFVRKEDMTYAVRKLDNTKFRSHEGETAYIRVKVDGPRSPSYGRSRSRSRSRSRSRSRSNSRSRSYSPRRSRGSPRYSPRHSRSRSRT

Assay [2] has the same target. The description is as above. This is another data set of the same source.

Where two headings read alike, the source gives them in different places. No constants are given. Whether binding was seen depends on the method and setting. In cells and extracts the contact can be indirect. Here binding means that the protein was enriched with, or labelled near, the bait; the list need not be complete.

Turning to DDX3X (from UniProt O00571 1-662), the binding entry in assay [1] is recorded as “binds”.

Regarding “ELAVL1 (ELAV-like RNA-binding protein 1) (from UniProt Q15717 1-326)”, in assay [1], the binding entry was “binds”.

With HSPA5 (from UniProt P11021 19-654), the binding entry in assay [1] is “binds”.

Turning to METTL3 (from UniProt Q86U44 1-580), the binding entry in assay [1] is “binds”.

Consider “SRSF1 (RNA-binding protein serine/arginine splicing factor 1) (from UniProt Q07955 1-248)”, for which the binding result in assay [1] was “binds”.

B1: MATRIN3 (protein, UniProt P43243 1-847)
chain: MSKSFQQSSLSRDSQGHGRDLSAAGIGLLAAATQSLSMPASLGRMNQGTARLASLMNLGMSSSLNQQGAHSALSSASTSSHNLQSIFNIGSRGPLPLSSQHRGDADQASNILASFGLSARDLDELSRYPEDKITPENLPQILLQLKRRRTEEGPTLSYGRDGRSATREPPYRVPRDDWEEKRHFRRDSFDDRGPSLNPVLDYDHGSRSQESGYYDRMDYEDDRLRDGERCRDDSFFGETSHNYHKFDSEYERMGRGPGPLQERSLFEKKRGAPPSSNIEDFHGLLPKGYPHLCSICDLPVHSNKEWSQHINGASHSRRCQLLLEIYPEWNPDNDTGHTMGDPFMLQQSTNPAPGILGPPPPSFHLGGPAVGPRGNLGAGNGNLQGPRHMQKGRVETSRVVHIMDFQRGKNLRYQLLQLVEPFGVISNHLILNKINEAFIEMATTEDAQAAVDYYTTTPALVFGKPVRVHLSQKYKRIKKPEGKPDQKFDQKQELGRVIHLSNLPHSGYSDSAVLKLAEPYGKIKNYILMRMKSQAFIEMETREDAMAMVDHCLKKALWFQGRCVKVDLSEKYKKLVLRIPNRGIDLLKKDKSRKRSYSPDGKESPSDKKSKTDGSQKTESSTEGKEQEEKSGEDGEKDTKDDQTEQEPNMLLESEDELLVDEEEAAALLESGSSVGDETDLANLGDVASDGKKEPSDKAVKKDGSASAAAKKKLKKVDKIEELDQENEAALENGIKNEENTEPGAESSENADDPNKDTSENADGQSDENKDDYTIPDEYRIGPYQPNVPVGIDYVIPKTGFYCKLCSLFYTNEEVAKNTHCSSLPHYQKLKKFLNKLAEERRQKKET
Consider B1, for which the binding entry in assay [2] was “binds”.

B2: HNRNPM (protein, UniProt P52272 1-730)
chain: MAAGVEAAAEVAATEIKMEEESGAPGVPSGNGAPGPKGEGERPAQNEKRKEKNIKRGGNRFEPYANPTKRYRAFITNIPFDVKWQSLKDLVKEKVGEVTYVELLMDAEGKSRGCAVVEFKMEESMKKAAEVLNKHSLSGRPLKVKEDPDGEHARRAMQKVMATTGGMGMGPGGPGMITIPPSILNNPNIPNEIIHALQAGRLGSTVFVANLDYKVGWKKLKEVFSMAGVVVRADILEDKDGKSRGIGTVTFEQSIEAVQAISMFNGQLLFDRPMHVKMDERALPKGDFFPPERPQQLPHGLGGIGMGLGPGGQPIDANHLNKGIGMGNIGPAGMGMEGIGFGINKMGGMEGPFGGGMENMGRFGSGMNMGRINEILSNALKRGEIIAKQGGGGGGGSVPGIERMGPGIDRLGGAGMERMGAGLGHGMDRVGSEIERMGLVMDRMGSVERMGSGIERMGPLGLDHMASSIERMGQTMERIGSGVERMGAGMGFGLERMAAPIDRVGQTIERMGSGVERMGPAIERMGLSMERMVPAGMGAGLERMGPVMDRMATGLERMGANNLERMGLERMGANSLERMGLERMGANSLERMGPAMGPALGAGIERMGLAMGGGGGASFDRAIEMERGNFGGSFAGSFGGAGGHAPGVARKACQIFVRNLPFDFTWKMLKDKFNECGHVLYADIKMENGKSKGCGVVKFESPEVAERACRMMNGMKLSGREIDVRIDRNA
Consider B2, for which the binding entry in assay [2] was “binds”.

Source of the values: paper PMC10254187.
